Earlier results in article PMC3063246, “Corticotropin Releasing Factor-Induced CREB Activation in Striatal Neurons Occurs via a Novel Gβγ Signaling Pathway” (PLoS ONE, 2011).

Tested on: depolarization-induced CREB phosphorylation
Set-up: method as in 3 sources, ref 36 = [36]; PMID 11226322; doi:10.1073/pnas.051634198; 36 Wu GY Deisseroth K Tsien RW 2001 Activity-dependent CREB phosphorylation: convergence of a fast, sensitive calmodulin kinase pathway and a slow, less sensitive mitogen-activated protein kinase path ||| ref [36] (a number printed in a supplementary file, which may have a reference list of its own: not looked up in the article's list) ||| ref [71] (a number printed in a supplementary file, which may have a reference list of its own: not looked up in the article's list)
Details: 5 mM as printed; cited from earlier work

## COC(=O)C1=C(C)NC(C)=C(C(=O)OC)C1c1ccccc1[N+](=O)[O-] [nifedipine]
  effect on depolarization-induced pCREB: L-type Calcium Channel (5 mM prevents depolarization-induced pCREB)
